For at least one entry, the source does not settle the construct or the ends of the probe. For some assays here: The comparison behind a weaker result is the experiment's own reference, which may not be listed here. For some assays here: At least one verdict was read from the data and is not stated in words by the source.
Columns and labels:
TRF2 = TRF2 (UniProt Q15554); test: single-molecule colocalization, RNase H protection; settings: TRF2 prebound to duplex, protection lost after proteinase K; Single molecule: T50 (10 mM Tris-HCl pH 7.5, 50 mM NaCl); imaging 10 mM Tris-HCl pH 7.5, 100 mM NaCl; recombinant protein; protein details: N-terminal His6; letters put together from the description
RAD51 = RAD51 (UniProt Q06609); test: EMSA; settings: 1 mM Mg2+, 1 mM ATP, RAD51 EMSA: 50 mM Tris-HCl pH 7.5, 50 mM KCl, 1 mM MgCl2, 1 mM ATP, 37 C 10 min, 0.8% TBE agarose + 10 mM KCl at 4 C, recombinant protein
POT1 (Homo sapiens) = POT1 (Homo sapiens) (UniProt Q9NUX5); test: single-molecule binding; settings: stably bound after 6x washes; Single molecule: T50 (10 mM Tris-HCl pH 7.5, 50 mM NaCl); imaging 10 mM Tris-HCl pH 7.5, 100 mM NaCl; recombinant protein; protein details: GST; letters put together from the description

Chains of the proteins cited; added tags and fusions are not shown. Lines headed by an entry give the natural chain unless they say otherwise; changes in a name come on top.
UniProt Q15554: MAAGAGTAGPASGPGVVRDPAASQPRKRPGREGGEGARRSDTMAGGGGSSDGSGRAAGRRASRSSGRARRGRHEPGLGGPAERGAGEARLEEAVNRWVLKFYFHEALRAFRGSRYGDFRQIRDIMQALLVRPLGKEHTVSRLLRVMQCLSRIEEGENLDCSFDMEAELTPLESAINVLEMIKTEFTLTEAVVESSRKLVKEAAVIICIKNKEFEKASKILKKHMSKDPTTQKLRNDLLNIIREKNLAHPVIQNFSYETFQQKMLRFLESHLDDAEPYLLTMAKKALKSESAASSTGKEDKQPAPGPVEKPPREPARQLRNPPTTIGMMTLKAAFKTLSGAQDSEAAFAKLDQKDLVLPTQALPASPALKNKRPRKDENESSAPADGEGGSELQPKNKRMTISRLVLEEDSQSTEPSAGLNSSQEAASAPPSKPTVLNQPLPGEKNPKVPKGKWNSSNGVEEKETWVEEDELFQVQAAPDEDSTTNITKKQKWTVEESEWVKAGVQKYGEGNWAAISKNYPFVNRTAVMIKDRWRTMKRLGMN
UniProt Q06609, whole entry: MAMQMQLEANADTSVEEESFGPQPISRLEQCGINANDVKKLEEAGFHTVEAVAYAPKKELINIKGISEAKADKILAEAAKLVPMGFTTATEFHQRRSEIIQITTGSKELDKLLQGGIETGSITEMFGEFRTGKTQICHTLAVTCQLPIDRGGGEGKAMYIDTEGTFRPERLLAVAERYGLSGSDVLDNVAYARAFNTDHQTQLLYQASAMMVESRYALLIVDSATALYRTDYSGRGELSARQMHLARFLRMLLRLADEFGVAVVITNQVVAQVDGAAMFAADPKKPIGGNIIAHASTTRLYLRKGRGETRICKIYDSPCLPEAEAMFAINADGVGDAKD
UniProt Q9NUX5: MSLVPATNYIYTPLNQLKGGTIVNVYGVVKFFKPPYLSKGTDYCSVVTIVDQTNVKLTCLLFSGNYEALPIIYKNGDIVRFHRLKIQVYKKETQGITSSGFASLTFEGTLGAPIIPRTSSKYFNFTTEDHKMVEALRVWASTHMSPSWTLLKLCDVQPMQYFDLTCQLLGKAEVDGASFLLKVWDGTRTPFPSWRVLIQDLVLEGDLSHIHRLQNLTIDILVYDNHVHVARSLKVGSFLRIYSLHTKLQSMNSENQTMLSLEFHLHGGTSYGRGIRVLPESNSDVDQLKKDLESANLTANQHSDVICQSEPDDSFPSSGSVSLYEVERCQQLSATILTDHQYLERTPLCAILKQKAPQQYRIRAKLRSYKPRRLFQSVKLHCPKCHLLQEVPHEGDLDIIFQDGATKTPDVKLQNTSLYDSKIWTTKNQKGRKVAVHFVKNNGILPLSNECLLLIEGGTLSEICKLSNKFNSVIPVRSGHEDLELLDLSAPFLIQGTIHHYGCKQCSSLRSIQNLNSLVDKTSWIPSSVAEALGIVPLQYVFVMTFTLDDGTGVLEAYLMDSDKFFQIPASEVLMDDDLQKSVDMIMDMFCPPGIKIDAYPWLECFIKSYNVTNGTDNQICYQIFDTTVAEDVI

**Q.** Does “TGGCGACGGCAGCGAGGCTTAGGGTTAGGGTTAGGGTTAGGG / CCCTAACCCTAACCCTAACCCTAAGCCTCGCTGCCGTCGCCA / UGGCGACGGCAGCGAGGCUUAGGGUUAGGGUUAGGGUUAGGG [telomeric duplex with annealed TERRA-18]” bind (TRF2)?
**A.** binds

**Q.** Does “TGGCGACGGCAGCGAGGCTTAGGGTTAGGGTTAGGGTTAGGG [G4-18 DNA]” bind (RAD51; lower affinity than TERRA-18, unbound band remains at 1.5 uM RAD51, label: 3' Cy3, folded or branched DNA)?
**A.** binds more weakly

**Q.** Does “TGGCGACGGCAGCGAGGCTTAGGGTTAGGGTTAGGGTTAGGG [G4-18-8oxoG]” bind (RAD51; mainly lower bound band, unbound band remains at 1.5 uM RAD51, 8-oxoguanine at position 29, single-stranded DNA)?
**A.** binds more weakly

**Q.** Does “TGGCGACGGCAGCGAGGCTTAGGGTTAGGGTTAGGGTTAGGGTTAGGGTTAGGGTTAGGGTTAGGG / CCCTAACCCTAACCCTAACCCTAAGCCTCGCTGCCGTCGCCA [telomeric duplex with G4 overhang]” bind (POT1 (Homo sapiens))?
**A.** binds

**Q.** Does “UUUUUUUUUUUUUUUUUUUUUUUUUUUUUUUUUUUUUUUU [poly U40]” bind (RAD51; mainly lower bound band, unbound band remains at 1.5 uM RAD51)?
**A.** binds more weakly
